Data as given in PubChem BioAssay AID1259270 (Sanger Institute, 2017)
This is a random part of 160 reagents tested. 76 of all reagents (48%) were called active. 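Four separate siRNAs per gene; calls are per siRNA in one cell line, looser than gene-level validation across several lines.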 The numbers tell different reagents against one gene apart. Further read-outs or replicates are left out here. No sequences are given here. The record does not give: the amount of reagent, the time to read-out.

Screen: 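Follow-up of kinome hits for synergy with three anchor drugs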 (follow-up of hits)
Cells: human SNU-C5 colorectal cancer cells
Reagent: single siRNA against human genes
Challenge: anchor drugs added after knock-down: BYL719 1 µM, cetuximab 5 µg/ml or trametinib 10 nM, or DMSO vehicle
Detection: 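Replicate survival relative to non-targeting pool 2, then averaged; anchor drug added after silencing; synergy score weighs combination against each single treatment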
Direction: synergy score with BYL719 and synergy score with cetuximab and synergy score with trametinib: higher = stronger synergy (extra killing) with the drug
Active means: 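a score above 0.10 for BYL719, cetuximab or trametinib gives a synergy call; no score above 0.10 means no synergy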
Calls: active = synergy with at least one drug; inactive = no synergy with any drug

For ACVR1 #1, the entry reads synergy score with BYL719 = -0.000732; synergy score with cetuximab -0.0328; synergy score with trametinib 0.0216; inactive.
With knock-down of ACVR1 #2, the screen gave synergy score with BYL719 = -0.00106; synergy score with cetuximab -0.298; synergy score with trametinib 0.0638; inactive.
ACVR1 #3 gave synergy score with BYL719 = -0.0986; synergy score with cetuximab -0.0892; synergy score with trametinib 0.134; active.
ACVR1 #4 showed synergy score with BYL719 = -0.107; synergy score with cetuximab 0.0595; synergy score with trametinib 0.13; active.
For MAP3K8 #1 the deposit lists synergy score with BYL719 = -0.215; synergy score with cetuximab -0.0501; synergy score with trametinib -0.0618; inactive.
Knock-down of MAP3K8 #2 gave: synergy score with BYL719 = -0.0111; synergy score with cetuximab -0.17; synergy score with trametinib -0.237; inactive.
For MAP3K8 #3, the entry reads synergy score with BYL719 = -0.161; synergy score with cetuximab -0.174; synergy score with trametinib -0.305; inactive.
With knock-down of MAP3K8 #4 the results were synergy score with BYL719 = -0.11; synergy score with cetuximab -0.117; synergy score with trametinib 0.155; active.

Quoted from the entries so far for reference:
ACVR1 #3: synergy score with BYL719 = -0.0986; synergy score with cetuximab = -0.0892; synergy score with trametinib = 0.134; outcome = active
ACVR1 #4: synergy score with BYL719 = -0.107; synergy score with cetuximab = 0.0595; synergy score with trametinib = 0.13; outcome = active

The list goes on:
Silencing of IRAK1 #1 resulted in: synergy score with BYL719 = 0.112; synergy score with cetuximab 0.17; synergy score with trametinib 0.683; active.
Depletion of IRAK1 #2 gave: synergy score with BYL719 = 0.0729; synergy score with cetuximab 0.129; synergy score with trametinib 0.166; active.
With knock-down of IRAK1 #3 the results were synergy score with BYL719 = 0.113; synergy score with cetuximab -0.115; synergy score with trametinib -0.231; active.
With knock-down of IRAK1 #4, the record shows synergy score with BYL719 = 0.463; synergy score with cetuximab 0.0201; synergy score with trametinib 0.0931; active.
